Measured data: PubChem BioAssay AID1259425 (University of Nebraska Medical Center, 2018)

Aim: 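Find knockdowns that reproduce the gene expression pattern seen when KSR1 is lost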 (primary screen)
Cell system: HCT116 human colon cancer cells
Reagent: siRNA pool against human genes, 50 nM siRNA
Detection: 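After 50 nM siRNA pool, branched-DNA assay measures six marker transcripts per well, minus blank, normalised to the geometric mean of two housekeeping transcripts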
Reading the numbers: BNIP3L mRNA: higher = more BNIP3L transcript after knockdown; NDRG1 mRNA: higher = more NDRG1 transcript after knockdown; BNIP3 mRNA: higher = more BNIP3 transcript after knockdown; ALDOC mRNA: higher = more ALDOC transcript after knockdown
In all, the deposit lists about 14,000 reagents; this is a random part of them. Reagents against one gene are numbered here. Some reagents were tested in more than one well and are listed for each. Not all columns of the deposit are shown. Not stated in the record: the time to read-out.

Gene	reagent	BNIP3L mRNA, set 1	NDRG1 mRNA, set 1	BNIP3 mRNA, set 1	ALDOC mRNA, set 1
SCLY (selenocysteine lyase)	1	0.137	0.193	0.316	0.0233
EMC4 (ER membrane protein complex subunit 4)	1	0.141	0.267	0.353	0.00678
PARG (poly(ADP-ribose) glycohydrolase)	1	0.0931	0.375	0.335	0.0469
TAS2R41 (taste 2 receptor member 41)	1	0.108	0.188	0.209	0.059
PTENP1 (phosphatase and tensin homolog pseudogene 1)	1	0.0577	0.127	0.285	0.0105
HIPK4 (homeodomain interacting protein kinase 4)	1	0.0948	0.19	0.294	0.0155
NAT8B (N-acetyltransferase 8B (putative, gene/pseudogene))	1	0.0968	0.237	0.287	0.0142
SPMIP6 (sperm microtubule inner protein 6)	1	0.115	0.161	0.197	0.0236
APOBEC1 (apolipoprotein B mRNA editing enzyme catalytic subunit 1)	1	0.141	0.242	0.268	0.0302
MED25 (mediator complex subunit 25)	1	0.193	0.39	0.272	0.0961
AXIN2 (axin 2)	1	0.0935	0.156	0.256	0.0175
SMG5 (SMG5 nonsense mediated mRNA decay factor)	1	0.0745	0.218	0.213	0.0164
CCL15 (C-C motif chemokine ligand 15)	1	0.106	0.194	0.232	0.0287
BBOF1 (basal body orientation factor 1)	1	0.0958	0.62	0.339	0.0289
SLC22A1	1	0.152	0.188	0.215	0.0225
GPR162 (G protein-coupled receptor 162)	1	0.168	0.191	0.203	0.0362
H4C3 (H4 clustered histone 3)	1	0.106	0.35	0.405	0.0613
MLH1 (mutL homolog 1)	1	0.0811	0.15	0.414	0.0078
MYLK3 (myosin light chain kinase 3)	1	0.131	0.861	0.428	0.0287
MBD3 (methyl-CpG binding domain protein 3)	1	0.116	0.543	0.249	0.0154
MAOA (monoamine oxidase A)	1	0.0616	0.189	0.245	0.0142
PMS2P5	1	0.111	0.222	0.255	0.0396
RAX (retina and anterior neural fold homeobox)	1	0.0637	0.222	0.296	0.0166
RAX (retina and anterior neural fold homeobox)	1	0.0787	0.0722	0.506	0.0294
RDH8 (retinol dehydrogenase 8)	1	0.0851	0.113	0.238	0.0303
NMT2 (N-myristoyltransferase 2)	1	0.122	0.29	0.413	0.0424
ZFP37 (ZFP37 zinc finger protein)	1	0.162	0.166	0.117	0.00325
TMEFF2	1	0.089	0.13	0.372	0.00362
ABCG5 (ATP binding cassette subfamily G member 5)	1	0.242	0.232	0.41	0.0268
NTS (neurotensin)	1	0.176	0.0718	0.545	0.0628
PPP1R12C (protein phosphatase 1 regulatory subunit 12C)	1	0.109	0.221	0.263	0.0226
WFS1 (wolframin ER transmembrane glycoprotein)	1	0.15	0.317	0.443	0.0359
USP45 (ubiquitin specific peptidase 45)	1	0.131	0.212	0.323	0.0395
CTNNBIP1 (catenin beta interacting protein 1)	1	0.116	0.256	0.314	0.00589
KDM5A (lysine demethylase 5A)	1	0.0383	0.177	0.291	0.00742
SLC30A3	1	0.134	0.347	0.337	0.0309
ELSPBP1 (epididymal sperm binding protein 1)	1	0.131	0.136	0.251	0.0618
PLA2R1 (phospholipase A2 receptor 1)	1	0.121	0.0925	0.32	0.0377
RHOC (ras homolog family member C)	1	0.0494	0.203	0.233	0.0242
DNAH6 (dynein axonemal heavy chain 6)	1	0.0704	0.254	0.31	0.0555
DHX15 (DEAH-box helicase 15)	1	0.049	0.158	0.237	0.0153
ECI2 (enoyl-CoA delta isomerase 2)	1	0.15	0.336	0.313	0.0431

Continued, starting with the last 7 of the part before.
Gene	reagent	BNIP3L mRNA, set 1	NDRG1 mRNA, set 1	BNIP3 mRNA, set 1	ALDOC mRNA, set 1
SLC30A3	1	0.134	0.347	0.337	0.0309
ELSPBP1 (epididymal sperm binding protein 1)	1	0.131	0.136	0.251	0.0618
PLA2R1 (phospholipase A2 receptor 1)	1	0.121	0.0925	0.32	0.0377
RHOC (ras homolog family member C)	1	0.0494	0.203	0.233	0.0242
DNAH6 (dynein axonemal heavy chain 6)	1	0.0704	0.254	0.31	0.0555
DHX15 (DEAH-box helicase 15)	1	0.049	0.158	0.237	0.0153
ECI2 (enoyl-CoA delta isomerase 2)	1	0.15	0.336	0.313	0.0431
STAG3L4 (STAG3 cohesin complex component like 4 (pseudogene))	1	0.248	0.149	0.363	0.0538
ZDHHC3 (zDHHC palmitoyltransferase 3)	1	0.0781	0.0895	0.227	0.0203
ZDHHC3 (zDHHC palmitoyltransferase 3)	2	0.461	0.706	0.438	0.0122
BBS10 (Bardet-Biedl syndrome 10)	1	0.211	0.361	0.364	0.0464
TP53TG5 (TP53 target 5)	1	0.0759	0.129	0.0984	0.0145
STRADA (STE20 related adaptor alpha)	1	0.0615	0.182	0.452	0.0125
LAMB2 (laminin subunit beta 2)	1	0.0935	0.135	0.223	0.00871
RGS11 (regulator of G protein signaling 11)	1	0.132	0.312	0.333	0.0678
ANKRD26 (ankyrin repeat domain 26)	1	0.152	0.0953	0.233	0.0327
ADIPOR1 (adiponectin receptor 1)	1	0.161	0.106	0.175	0.0313
RHOU (ras homolog family member U)	1	0.139	0.172	0.364	0.00983
PPARGC1B (PPARG coactivator 1 beta)	1	0.086	0.192	0.245	0.0196
DHX30 (DExH-box helicase 30)	1	0.105	0.256	0.356	0.0291
TBC1D2 (TBC1 domain family member 2)	1	0.214	0.592	0.395	0.0282
FAM219B (family with sequence similarity 219 member B)	1	0.152	0.246	0.291	0.0174
SHROOM3 (shroom family member 3)	1	0.132	0.217	0.198	0.041
MYOZ2 (myozenin 2)	1	0.0469	0.435	0.312	0.0344
DALRD3 (DALR anticodon binding domain containing 3)	1	0.0725	0.0592	0.23	0.00683
ATP6V0A2 (ATPase H+ transporting V0 subunit a2)	1	0.122	0.138	0.367	0.0302
MRGPRF (MAS related GPR family member F)	1	0.13	0.584	0.352	0.0224
ADCY10 (adenylate cyclase 10)	1	0.099	0.134	0.358	0.0342
